# Measured values as given in PubChem BioAssay AID1508600 (Functional Genomics Laboratory (NCATS/FGL), 2020).
# Hit rate of the full screen: of about 53,000 sequences, about 3,700 (7%) were called active.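 The calls were made as follows: active = gene knockdowns whose robust z-score for IL-1 alpha signal is at least 2 or at most -2, so actives lie on both sides; inactive = the rest.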 The list shows a part of the results.
# Assay: Components of the Cytosolic LPS Sensing Pathway: Gene Identification via Genome-wide siRNA Screen;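 also: robust z of the log signal after scaling to non-targeting control siRNA wells of the plate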
# Conditions: RAW264.7 macrophages, IL-1a HTRF, actives lie on both sides, screened at 100 nM (by protocol), cells primed 5 h with Pam3CSK4 first
# Method in brief: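 Read-out: IL-1a HTRF on supernatant, divided by plate negative-control median ×100, log-transformed and converted to robust z-score. Cells were RAW264.7 given 100 nM siRNA, Pam3CSK4-primed 5 hours, then LipidA-transfected 24 hour.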
row,Sequence,z-score
1,GCAGUAAAAUGACAUUUGGTT against Dennd6b,inactive: 0.694
2,GCUUCAGUAUUUAUUUGCUTT against Usp28,active: 2.27
3,GGUUACAUAUCAGUUGAAATT against Slc35a3,inactive: 0.032
4,GGGUAGGUAUCAAAAUAAUTT against 6030452D12Rik,inactive: 0.172
5,UGGGAUCUUCGUUUAAUGATT against Syncrip,inactive: 0.34
6,GCCUCGAGUAGAGUAUUCUTT against Tmem150c,inactive: 0.831
7,GGCUUUGUCUACACUUUCATT against Olfr1308,inactive: -1.02
8,CGAAUUGUCUUUCUCACUATT against Olfr769,inactive: 0.069
9,GCUGUAUAACGAGAUUGAATT against Ptges3l,inactive: -1.81
10,GGAUUUCAGUGUCUAGAAGTT against Frmd4b,inactive: 0.391
11,GCGGAAUUUGAUCACAUCCTT against Acp7,inactive: -1.48
12,CCAAUAAGGUCUCUGCCCATT against Trit1,inactive: 0.402
13,GUCGCACCGUAUUCACUGATT against Barx1,inactive: 0.389
14,GGGUGAACUUACAGAAAUATT against Olfr214,inactive: -0.405
15,GCGGAUUAUUUACAACACUTT against Ctnnal1,inactive: -0.501
16,CCUAAGGAGGAUGCGUAUGTT against Mphosph10,inactive: -0.729
17,GGGAAUUCACAGUCAGCCUTT against Il27,inactive: 0.161
18,GGCUUCGAUGUGUUUAUGCTT against Bend7,inactive: -0.0743
19,GCAUGUACCAAGGUUGAUGTT against Klhl17,inactive: 1.36
20,GGGUCUUUAUAAACUCAGUTT against Tyr,inactive: 0.0639
21,GGAGCAGAUACAGAAGAUCTT against Pfdn2,inactive: -1.21
22,GGAAGACCAGUAGGACUAGTT against Gast,inactive: -0.534
23,CCUUCUCAUAAGCUACGGUTT against Pms1,inactive: -0.882

# Copied from the list.
# z-score with CGAAUUGUCUUUCUCACUATT against Olfr769 reads inactive: 0.069
# z-score with GCGGAUUAUUUACAACACUTT against Ctnnal1 reads inactive: -0.501
# z-score with GGAGCAGAUACAGAAGAUCTT against Pfdn2 reads inactive: -1.21
# z-score with GGAUUUCAGUGUCUAGAAGTT against Frmd4b reads inactive: 0.391
# z-score with GCCUCGAGUAGAGUAUUCUTT against Tmem150c reads inactive: 0.831

# (cont.)

row,Sequence,z-score
1,GGCACCACUAAUCAUCAGATT against Nampt,inactive: -0.885
2,GGAGUUCAACAAUGGAUUATT against 1700019M22Rik,inactive: 1.27
3,CCCAUAACAAACUAAGACGTT against Trpm4,inactive: -0.182
4,GGACAACUGGCUUCAGACATT against Epha10,inactive: -0.104
5,GGGUGGAAGUGGAAUUUAUTT against C2cd6,inactive: 1.4
6,GCCCACUGUAUGAAUUGUATT against Plk1,inactive: -1.54
7,GGGCUCUUCAUUCAGACUCTT against Zfp513,inactive: -0.866
8,GGAACUUCACUUUUAACACTT against Il33,inactive: -0.534
9,GGCUAUGGCUUUUGUAUGUTT against Arpin,inactive: -0.0747
10,GGACUUCAACAACUGCUCUTT against Polr1a,active: 2.28
11,GCAGUGUCCAAAGCACUUUTT against Slc6a9,inactive: -1.14
12,GCAGCUCAACUAUUCUUGATT against Macir,inactive: 0.0696
13,GGAAUUUCACUAUAAUCGCTT against Hoxb6,inactive: 1
14,GGCGGAGAAAGUGUUCAUGTT against Ccdc51,inactive: 0.277
15,GGUGGUGGUGCUUUUUGACTT against Tmem86a,inactive: -0.44
16,GGGUCUUAAUGGGAUGGCUTT against Tmem241,inactive: -0.0277
17,GGCACAACAUCAUCUGUCUTT against Psmd9,active: -2.05
18,GGCUCCUCAUUACCUCUACTT against Rrp7a,inactive: 0.233
19,GGAAUUCAUCUGUGGUCUCTT against Trim50,inactive: -0.559
20,CCCUAUCCAUUCAUGGCACTT against Rd3,inactive: 0.124
21,GGUCCUUCGUAGUUGUGGUTT against Sp110,inactive: 1.33
22,GGCUUUUAGGUGUAUCAGGTT against Btg4,inactive: -0.734
23,GGCAUGUGUUUGAUAAGACTT against Tipin,inactive: 0.68

row,Sequence,z-score
1,GGAAACCACAUGCCUGAGATT against Spp2,inactive: -0.43
2,GGACACCACGUUCACCAAGTT against Rbm38,inactive: -0.36
3,GGUUGGCCAUAUAAAGAGATT against Hltf,inactive: 1.12
4,CCCUGCAUUUGUCAAUUAUTT against Hnrnpl,inactive: -0.161
5,GCUCUAGCAACUAAGCGCATT against Fbxw26,inactive: 0.493
6,CCAGACGAUCUCAUGAUGUTT against Cabs1,inactive: 0.16
7,GGCUGAAGAGAGAUGAAUCTT against Nmur2,inactive: -0.581
8,CCAAAGAUGCUCCUCACCUTT against Olfr197,inactive: -0.158
9,GGCAUCAAUCUCUUUGAAATT against AF366264,inactive: -0.963
10,GGCCCAUCUGAGGAAGCUUTT against Magea4,inactive: -1.55
11,GGCUCACAAUUGCUCUGCATT against Psg21,inactive: 0.47
12,GGUUUCUGGAGCGGCCAAATT against Haus8,inactive: 0.934
13,GCAUCCUCCCUUCCCAAUGTT against Sh3bgr,inactive: -0.0974
14,GGAAAAAAUUAAAGAGCACTT against Gmcl1,active: 2.15
15,GGUGUCAGAAAUUUCCAUATT against Pisd,inactive: -0.601
16,GCAUACGGAAUCUUUACGGTT against Asic1,inactive: -1.66
17,GGUUUAACCAUGGAAGAAATT against Eya3,inactive: -0.224
18,GCCCGGAAUUUCUCCUUCATT against Prrt1,inactive: 0.547
19,GGGUGGAAGAGUUCAGUUUTT against Ptgr2,inactive: -1.29
20,CCAUUGGUUUUGAGGAUAUTT against Pomp,inactive: -1.18
21,GGUCCUUAGCUGUUCAUUCTT against Styx,inactive: -0.287
22,GGAACAAGCCCUGAAAGUCTT against Prl,inactive: 0.415
